Results as given in the supplement of paper PMC8728848.
This is one part of the list.

Key:
Assay in all cases: glycan array binding signal (z-score within array); higher = stronger binding
Settings in all cases: glycan notation: IUPAC condensed, linker removed
[1] = target: Fuc(a1-3)[Gal3S(b1-4)]GlcNAc
In short: (§1)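 The Consortium for Functional Glycomics database supplied 3228 glycan arrays, of which those lacking an available protein sequence were dropped. The binding signal, a within-array Z-score, was averaged across arrays of the same protein sequence and across linkers. Negative scores can be read as non-binding.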

[2] = target: Fuc(a1-3)[Gal3S(b1-4)]GlcNAc6S
In short: as §1

[3] = target: Fuc(a1-3)[GalNAc(b1-4)]GlcNAc
In short: as §1

Fuc(a1-4)GlcNAc = target: Fuc(a1-4)GlcNAc
In short: as §1

Fuc(b1-3)GlcNAc = target: Fuc(b1-3)GlcNAc
In short: as §1

Gal(a1-2)Gal = target: Gal(a1-2)Gal
In short: as §1

Gal(a1-3)Gal = target: Gal(a1-3)Gal
In short: as §1

Gal(a1-3)Gal(b1-3)GlcNAc = target: Gal(a1-3)Gal(b1-3)GlcNAc
In short: as §1

[4] = target: Gal(a1-3)Gal(b1-3)GlcNAc(b1-2)Man(a1-3)[Gal(a1-3)Gal(b1-3)GlcNAc(b1-2)Man(a1-6)]Man(b1-4)GlcNAc(b1-4)GlcNAc
In short: as §1

[5] = target: Gal(a1-3)Gal(b1-3)[Fuc(a1-4)]GlcNAc(b1-2)Man(a1-3)[Gal(a1-3)Gal(b1-3)[Fuc(a1-4)]GlcNAc(b1-2)Man(a1-6)]Man(b1-4)GlcNAc(b1-4)GlcNAc
In short: as §1

Gal(a1-3)Gal(b1-4)Glc = target: Gal(a1-3)Gal(b1-4)Glc
In short: as §1

Gal(a1-3)Gal(b1-4)GlcNAc = target: Gal(a1-3)Gal(b1-4)GlcNAc
In short: as §1

[6] = target: Gal(a1-3)Gal(b1-4)GlcNAc(b1-3)GalNAc
In short: as §1

[7] = target: Gal(a1-3)Gal(b1-4)[Fuc(a1-3)]GlcNAc
In short: as §1

[8] = target: Gal(a1-3)Gal(b1-4)[Fuc(a1-3)]GlcNAc(b1-2)Man(a1-3)[Gal(a1-3)Gal(b1-4)[Fuc(a1-3)]GlcNAc(b1-2)Man(a1-6)]Man(b1-4)GlcNAc(b1-4)GlcNAc
In short: as §1

Gal(a1-3)GalNAc = target: Gal(a1-3)GalNAc
In short: as §1

[9] = target: Gal(a1-3)[Gal(a1-4)]Gal(b1-4)GlcNAc
In short: as §1

[10] = target: Gal(a1-4)Gal(b1-3)GlcNAc(b1-2)Man(a1-3)[Gal(a1-4)Gal(b1-3)GlcNAc(b1-2)Man(a1-6)]Man(b1-4)GlcNAc(b1-4)GlcNAc
In short: as §1

Gal(a1-4)Gal(b1-4)Glc = target: Gal(a1-4)Gal(b1-4)Glc
In short: as §1

Gal(a1-4)Gal(b1-4)GlcNAc = target: Gal(a1-4)Gal(b1-4)GlcNAc
In short: as §1

[11] = target: Gal(a1-4)Gal(b1-4)GlcNAc(b1-2)Man(a1-3)[Gal(a1-4)Gal(b1-4)GlcNAc(b1-2)Man(a1-6)]Man(b1-4)GlcNAc(b1-4)GlcNAc
In short: as §1

[12] = target: Gal(a1-4)Gal(b1-4)GlcNAc(b1-3)Gal(b1-4)Glc
In short: as §1

Gal(a1-4)GlcNAc = target: Gal(a1-4)GlcNAc
In short: as §1

Gal(a1-6)Glc = target: Gal(a1-6)Glc
In short: as §1

Gal(b1-2)Gal = target: Gal(b1-2)Gal
In short: as §1

Gal(b1-3)Gal = target: Gal(b1-3)Gal
In short: as §1

Gal(b1-3)Gal(b1-4)GlcNAc = target: Gal(b1-3)Gal(b1-4)GlcNAc
In short: as §1

[13] = target: Gal(b1-3)Gal(b1-4)GlcNAc(b1-2)Man(a1-3)[Gal(b1-3)Gal(b1-4)GlcNAc(b1-2)Man(a1-6)]Man(b1-4)GlcNAc(b1-4)GlcNAc
In short: as §1

Gal(b1-3)GalNAc = target: Gal(b1-3)GalNAc
In short: as §1

[14] = target: Gal(b1-3)GalNAc(a1-3)[Fuc(a1-2)]Gal(b1-4)Glc
In short: as §1

[15] = target: Gal(b1-3)GalNAc(a1-3)[Fuc(a1-2)]Gal(b1-4)GlcNAc
In short: as §1

[16] = target: Gal(b1-3)GalNAc(b1-3)Gal(a1-4)Gal(b1-4)Glc
In short: as §1

[17] = target: Gal(b1-3)GalNAc(b1-4)Gal(b1-4)Glc
In short: as §1

[18] = target: Gal(b1-3)GalNAc(b1-4)[Neu5Ac(a2-3)]Gal(b1-4)Glc
In short: as §1

Gal(b1-3)GlcNAc = target: Gal(b1-3)GlcNAc
In short: as §1

[19] = target: Gal(b1-3)GlcNAc(a1-6)Gal(b1-4)GlcNAc
In short: as §1

[20] = target: Gal(b1-3)GlcNAc(b1-2)Man(a1-3)[Gal(b1-3)GlcNAc(b1-2)Man(a1-6)]Man(b1-4)GlcNAc(b1-4)GlcNAc
In short: as §1

[21] = target: Gal(b1-3)GlcNAc(b1-2)Man(a1-3)[Gal(b1-3)GlcNAc(b1-2)Man(a1-6)]Man(b1-4)GlcNAc(b1-4)[Fuc(a1-6)]GlcNAc
In short: as §1

[22] = target: Gal(b1-3)GlcNAc(b1-3)Gal(b1-3)GlcNAc
In short: as §1

[23] = target: Gal(b1-3)GlcNAc(b1-3)Gal(b1-4)Glc
In short: as §1

[24] = target: Gal(b1-3)GlcNAc(b1-3)Gal(b1-4)GlcNAc
In short: as §1

[25] = target: Gal(b1-3)GlcNAc(b1-3)Gal(b1-4)GlcNAc(b1-6)[Gal(b1-3)GlcNAc(b1-3)]Gal(b1-4)Glc
In short: as §1

[26] = target: Gal(b1-3)GlcNAc(b1-3)Gal(b1-4)[Fuc(a1-3)]GlcNAc(b1-6)[Gal(b1-3)GlcNAc(b1-3)]Gal(b1-4)Glc
In short: as §1

[27] = target: Gal(b1-3)GlcNAc(b1-3)GalNAc
In short: as §1

[28] = target: Gal(b1-3)GlcNAc(b1-6)Gal(b1-4)GlcNAc
In short: as §1

[29] = target: Gal(b1-3)[Fuc(a1-4)]GlcNAc
In short: as §1

[30] = target: Gal(b1-3)[Fuc(a1-4)]GlcNAc(b1-2)Man(a1-3)[Gal(b1-3)[Fuc(a1-4)]GlcNAc(b1-2)Man(a1-6)]Man(b1-4)GlcNAc(b1-4)GlcNAc
In short: as §1

[31] = target: Gal(b1-3)[Fuc(a1-4)]GlcNAc(b1-2)Man(a1-3)[Gal(b1-3)[Fuc(a1-4)]GlcNAc(b1-2)Man(a1-6)]Man(b1-4)GlcNAc(b1-4)[Fuc(a1-6)]GlcNAc
In short: as §1

[32] = target: Gal(b1-3)[Fuc(a1-4)]GlcNAc(b1-3)Gal(b1-3)[Fuc(a1-4)]GlcNAc
In short: as §1

[33] = target: Gal(b1-3)[Fuc(a1-4)]GlcNAc(b1-3)Gal(b1-4)GlcNAc
In short: as §1

[34] = target: Gal(b1-3)[Fuc(a1-4)]GlcNAc(b1-3)Gal(b1-4)[Fuc(a1-3)]GlcNAc
In short: as §1

[35] = target: Gal(b1-3)[GlcNAc(b1-6)]GalNAc
In short: as §1

[36] = target: Gal(b1-3)[Neu5Ac(a2-6)]GalNAc
In short: as §1

[37] = target: Gal(b1-3)[Neu5Ac(a2-6)]GlcNAc(b1-6)Gal(b1-4)Glc
In short: as §1

[38] = target: Gal(b1-3)[Neu5Ac(b2-6)]GalNAc
In short: as §1

[39] = target: Gal(b1-4)GalNAc(a1-3)[Fuc(a1-2)]Gal(b1-4)GlcNAc
In short: as §1

[40] = target: Gal(b1-4)GalNAc(b1-3)[Fuc(a1-2)]Gal(b1-4)GlcNAc
In short: as §1

Gal(b1-4)Glc = target: Gal(b1-4)Glc
In short: as §1

Gal(b1-4)Glc6S = target: Gal(b1-4)Glc6S
In short: as §1

Gal(b1-4)GlcNAc = target: Gal(b1-4)GlcNAc
In short: as §1

B1: SAG1 (Toxoplasma gondii), P13664 (protein)
chain: MSVSLHHFIISSGFLTSMFPKAVRRAVTAGVFAAPTLMSFLRCGVMASDPPLVANQVVTCPDKKSTAAVILTPTENHFTLKCPKTALTEPPTLAYSPNRQICPAGTTSSCTSKAVTLSSLIPEAEDSWWTGDSASLDTAGIKLTVPIEKFPVTTQTFVVGCIKGDDAQSCMVTVTVQARASSVVNNVARCSYGADSTLGPVKLSAEGPTTMTLVCGKDGVKVPQDNNQYCSGTTLTGCNEKSFKDILPKLTENPWQGNASSDKGATLTIKKEAFPAESKSVIIGCTGGSPEKHHCTVKLEFAGAAGSAKSAAGTASHVSIFAMVIGLIGSIAACVA
glycan array binding signal (z-score) [1]: 0.411
glycan array binding signal (z-score) [2]: 0.72
glycan array binding signal (z-score) [3]: -0.106
glycan array binding signal (z-score) (Fuc(a1-4)GlcNAc): -0.422
glycan array binding signal (z-score) (Fuc(b1-3)GlcNAc): -0.214
glycan array binding signal (z-score) (Gal(a1-2)Gal): 0.341
glycan array binding signal (z-score) (Gal(a1-3)Gal): 0.672
glycan array binding signal (z-score) (Gal(a1-3)Gal(b1-3)GlcNAc): -0.386
glycan array binding signal (z-score) [4]: 1.47
glycan array binding signal (z-score) [5]: 0.606
glycan array binding signal (z-score) (Gal(a1-3)Gal(b1-4)Glc): -0.363
glycan array binding signal (z-score) (Gal(a1-3)Gal(b1-4)GlcNAc): 0.902
glycan array binding signal (z-score) [6]: -0.788
glycan array binding signal (z-score) [7]: 0.109
glycan array binding signal (z-score) [8]: 0.398
glycan array binding signal (z-score) (Gal(a1-3)GalNAc): 0.134
glycan array binding signal (z-score) [9]: 0.866
glycan array binding signal (z-score) [10]: -0.287
glycan array binding signal (z-score) (Gal(a1-4)Gal(b1-4)Glc): -0.44
glycan array binding signal (z-score) (Gal(a1-4)Gal(b1-4)GlcNAc): -0.579
glycan array binding signal (z-score) [11]: 0.75
glycan array binding signal (z-score) [12]: 0.422
glycan array binding signal (z-score) (Gal(a1-4)GlcNAc): -0.563
glycan array binding signal (z-score) (Gal(a1-6)Glc): -0.501
glycan array binding signal (z-score) (Gal(b1-2)Gal): -0.017
glycan array binding signal (z-score) (Gal(b1-3)Gal): 0.334
glycan array binding signal (z-score) (Gal(b1-3)Gal(b1-4)GlcNAc): -0.036
glycan array binding signal (z-score) [13]: -0.238
glycan array binding signal (z-score) (Gal(b1-3)GalNAc): 0.077
glycan array binding signal (z-score) [14]: 0.13
glycan array binding signal (z-score) [15]: -1.13
glycan array binding signal (z-score) [16]: -0.158
glycan array binding signal (z-score) [17]: 0.028
glycan array binding signal (z-score) [18]: 0.625
glycan array binding signal (z-score) (Gal(b1-3)GlcNAc): -0.355
glycan array binding signal (z-score) [19]: -0.323
glycan array binding signal (z-score) [20]: -0.17
glycan array binding signal (z-score) [21]: 0.157
glycan array binding signal (z-score) [22]: -0.522
glycan array binding signal (z-score) [23]: -0.116
glycan array binding signal (z-score) [24]: 0.549
glycan array binding signal (z-score) [25]: 0.175
glycan array binding signal (z-score) [26]: -0.6
glycan array binding signal (z-score) [27]: 1.25
glycan array binding signal (z-score) [28]: 0.082
glycan array binding signal (z-score) [29]: 0.214
glycan array binding signal (z-score) [30]: 0.446
glycan array binding signal (z-score) [31]: 0.212
glycan array binding signal (z-score) [32]: -0.32
glycan array binding signal (z-score) [33]: 0.149
glycan array binding signal (z-score) [34]: -0.276
glycan array binding signal (z-score) [35]: -0.229
glycan array binding signal (z-score) [36]: -0.742
glycan array binding signal (z-score) [37]: -0.806
glycan array binding signal (z-score) [38]: -0.025
glycan array binding signal (z-score) [39]: -0.299
glycan array binding signal (z-score) [40]: 0.035
glycan array binding signal (z-score) (Gal(b1-4)Glc): -0.239
glycan array binding signal (z-score) (Gal(b1-4)Glc6S): -0.242
glycan array binding signal (z-score) (Gal(b1-4)GlcNAc): -0.622
